Laboratory results published in patent publication US5208148A, “Lipophilic fluorescent glycosidase substrates” (Molecular Probes, Inc., priority 1990, dated 1993).

System: CRE BAG 2 cells
Assay: Comparison of FDG with fatty acylated FDG derivatives: cell entry, retention and leakage
Assay type: cell-based, mouse

Question: Which “time after which fluorescence was noticed outside cell” value does the source give for `CCCCCCCC(=O)Nc1ccc2c(c1)C(=O)OC21c2ccc(O[C@@H]3O[C@H](CO)[C@H](O)[C@H](O)[C@H]3O)cc2Oc2cc(O[C@@H]3O[C@H](CO)[C@H](O)[C@H](O)[C@H]3O)ccc21` [C8 FDG] here?
Answer: 1 h

No dose or concentration is given here for some results.
